Assay results: PMC5630600
Results are given in words; binding and its absence hold for the method and conditions named. Binding seen in cells or lysates may run through a third protein. Some binding calls cover weakened binding; strength is not graded here.

Amino acid sequences for entries named in this document (tags omitted).
UniProt P27695: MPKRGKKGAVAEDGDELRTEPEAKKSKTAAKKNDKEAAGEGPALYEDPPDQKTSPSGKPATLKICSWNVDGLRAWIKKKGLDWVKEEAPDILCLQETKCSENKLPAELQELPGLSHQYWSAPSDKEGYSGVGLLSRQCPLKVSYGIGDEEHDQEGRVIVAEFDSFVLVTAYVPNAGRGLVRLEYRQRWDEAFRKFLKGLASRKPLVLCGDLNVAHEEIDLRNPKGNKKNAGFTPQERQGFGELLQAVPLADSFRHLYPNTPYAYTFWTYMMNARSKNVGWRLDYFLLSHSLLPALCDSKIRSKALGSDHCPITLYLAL
UniProt P17844: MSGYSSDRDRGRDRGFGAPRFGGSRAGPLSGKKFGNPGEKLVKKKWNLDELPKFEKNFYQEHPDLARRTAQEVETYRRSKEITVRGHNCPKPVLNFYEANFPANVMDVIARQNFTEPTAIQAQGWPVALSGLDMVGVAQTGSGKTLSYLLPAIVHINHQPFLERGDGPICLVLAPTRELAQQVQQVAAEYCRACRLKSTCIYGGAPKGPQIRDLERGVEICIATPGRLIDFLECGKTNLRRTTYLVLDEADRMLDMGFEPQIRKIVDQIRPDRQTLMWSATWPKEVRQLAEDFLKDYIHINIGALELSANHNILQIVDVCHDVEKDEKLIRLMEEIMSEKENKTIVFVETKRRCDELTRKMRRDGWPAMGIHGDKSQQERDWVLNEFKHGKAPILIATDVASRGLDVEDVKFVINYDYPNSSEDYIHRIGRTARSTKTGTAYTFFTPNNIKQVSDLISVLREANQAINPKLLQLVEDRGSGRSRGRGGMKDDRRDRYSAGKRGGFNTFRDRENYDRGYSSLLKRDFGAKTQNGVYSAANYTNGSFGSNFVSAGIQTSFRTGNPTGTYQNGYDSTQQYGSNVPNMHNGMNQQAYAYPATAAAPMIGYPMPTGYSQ
UniProt P06748: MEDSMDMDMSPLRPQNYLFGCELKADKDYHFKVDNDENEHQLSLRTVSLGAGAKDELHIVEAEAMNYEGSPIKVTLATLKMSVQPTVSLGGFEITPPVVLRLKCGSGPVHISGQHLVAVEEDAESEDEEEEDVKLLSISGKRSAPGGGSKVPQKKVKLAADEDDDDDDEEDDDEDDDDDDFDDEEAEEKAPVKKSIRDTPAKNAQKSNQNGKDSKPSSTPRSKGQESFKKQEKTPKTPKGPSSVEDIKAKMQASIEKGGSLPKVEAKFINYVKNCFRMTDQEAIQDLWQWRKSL

Assays:
[1] = biological target: apurinic/apyrimidinic endonuclease 1 (APE1), endogenous in HeLa cells (human (endogenous in HeLa)) (UniProt P27695); assay: proximity ligation; in situ PLA (Duolink) in HeLa cells on coverslips, monoclonal anti-APE1 with an antibody to the partner (polyclonal anti-DROSHA ab85027); untreated or 1 mM H2O2 for 15, 30, 60 min, or MMS
[2] = biological target: APE1 as immunoprecipitated in the Co-IP experiments (human) (UniProt P27695); assay: co-IP; Co-IP (Supplementary Fig. 4f); cells, antibodies and conditions not told in the text shown

Molecule: DEAD-box RNA helicase p68 (DDX5) (from UniProt P17844 1-614)
- binding [1]: no binding

Molecule: nucleophosmin 1 (NPM1) (from UniProt P06748 1-294)
- binding [2]: binds
- binding [1]: binds

B1: DGCR8 (DiGeorge critical region 8) (protein, UniProt Q8WYQ5 1-773)
chain: METDESPSPLPCGPAGEAVMESRARPFQALPREQSPPPPLQTSSGAEVMDVGSGGDGQSELPAEDPFNFYGASLLSKGSFSKGRLLIDPNCSGHSPRTARHAPAVRKFSPDLKLLKDVKISVSFTESCRSKDRKVLYTGAERDVRAECGLLLSPVSGDVHACPFGGSVGDGVGIGGESADKKDEENELDQEKRVEYAVLDELEDFTDNLELDEEGAGGFTAKAIVQRDRVDEEALNFPYEDDFDNDVDALLEEGLCAPKKRRTEEKYGGDSDHPSDGETSVQPMMTKIKTVLKSRGRPPTEPLPDGWIMTFHNSGVPVYLHRESRVVTWSRPYFLGTGSIRKHDPPLSSIPCLHYKKMKDNEEREQSSDLTPSGDVSPVKPLSRSAELEFPLDEPDSMGADPGPPDEKDPLGAEAAPGALGQVKAKVEVCKDESVDLEEFRSYLEKRFDFEQVTVKKFRTWAERRQFNREMKRKQAESERPILPANQKLITLSVQDAPTKKEFVINPNGKSEVCILHEYMQRVLKVRPVYNFFECENPSEPFGASVTIDGVTYGSGTASSKKLAKNKAARATLEILIPDFVKQTSEEKPKDSEELEYFNHISIEDSRVYELTSKAGLLSPYQILHECLKRNHGMGDTSIKFEVVPGKNQKSEYVMACGKHTVRGWCKNKRVGKQLASQKILQLLHPHVKNWGSLLRMYGRESSKMVKQETSDKSVIELQQYAKKNKPNLHILSKLQEEMKRLAEEREETRKKPKMSIVASAQPGGEPLCTVDV
- binding [1]: no binding
